Data as given in PubChem BioAssay AID1259272 (Sanger Institute, 2017)

Purpose: 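Kinase knock-downs lethal to colorectal cancer cells, with or without anchor drugs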 (primary screen)
Cell system: SW1116 human colorectal cancer cells
Knock-down reagent: siRNA pool against human genes
Conditions: anchor drugs BYL719 (1 µM), cetuximab (5 µg/ml) or trametinib (10 nM), or DMSO vehicle; exposure length not given
Detection: 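Replicate-averaged viability versus control-pool wells, with a robust z-score for siRNA alone and a per-drug synergy score (BYL719, cetuximab, trametinib)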
Reading the numbers: viability z-score, no drug: higher = more cells remaining; strongly negative means essential gene
Hit rule: 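a robust z-score under -3 with siRNA and no drug marks the gene essential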
Calls: active = essential (knock-down alone); inactive = no change
In all, the deposit lists 794 reagents; this is a random part of them. In the full data, 7 (0.88%) are marked active. 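Essential calls reflect knock-down without drug only, not synergy with drugs; drug exposure length not given.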 Further read-outs or replicates are left out here. The record does not give: the amount of reagent, the time to read-out.

For RIPK4 (GeneID 54101), what does the deposit list?
viability z-score, no drug: 0.842; activity call: inactive

For TRIB2 (GeneID 28951), what does the deposit list?
viability z-score, no drug: -2.48; activity call: inactive

With HASPIN (GeneID 83903), what does the deposit list?
viability z-score, no drug: -1.08; activity call: inactive

What did the screen give for AK2 (GeneID 204)?
viability z-score, no drug: -0.789; activity call: inactive

What did the screen give for PRKAB2 (GeneID 5565)?
viability z-score, no drug: -1.39; activity call: inactive

With BMPR2 (GeneID 659), what was measured?
viability z-score, no drug: 0.842; activity call: inactive

Which result is listed for NUAK1 (GeneID 9891)?
viability z-score, no drug: -1.93; activity call: inactive

With AGK (GeneID 55750), how do the results read?
viability z-score, no drug: -0.843; activity call: inactive

What is on record for SPHK1 (GeneID 8877)?
viability z-score, no drug: 0.842; activity call: inactive

With STK26 (GeneID 51765), what does the deposit list?
viability z-score, no drug: 0.841; activity call: inactive

For BRD4 (GeneID 23476), how do the results read?
viability z-score, no drug: 0.38; activity call: inactive

What did the screen give for PLK1 (GeneID 5347)?
viability z-score, no drug: -4.26; activity call: active
